Laboratory results as given in EP0335545B2, “Pharmaceutical formulations for parenteral use” (UNIVERSITY OF FLORIDA, priority 1988, dated 1989).
Converted amounts (≈) assume the structure as drawn. Where two headings read alike, the source gives them in different places.

What was measured:
physchem = conditions: Solubility (mg/mL)
[1] = 20% hydroxypropyl-β-cyclodextrin phosphate buffer
[2] = 20% hydroxypropyl-γ-cyclodextrin phosphate buffer

Structure (SMILES): CC(=O)[C@H]1CC[C@H]2[C@@H]3CC[C@H]4C[C@H](O)CC[C@]4(C)[C@H]3C(=O)C[C@]12C [Alfaxalone]
- solubility [1]: 24.42 mg/mL (≈ 73.4 mM)
- solubility [2]: 15.11 mg/mL (≈ 45.4 mM)
- solubility (physchem; [1]): 22.8 mg/mL (≈ 68.7 mM)
- solubility (physchem; [2]): 18.4 mg/mL (≈ 55.4 mM)
- solubility (physchem; 20% maltosyl-β-cyclodextrin phosphate buffer): 20 mg/mL (≈ 60.2 mM)
